The supplement of paper PMC10735217
Some of the results follow. Repeats in this data set agree poorly, so a single value says little.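 The human kidney-derived cells carry a stably integrated construct of eight TEAD-binding elements driving luciferase, read by luminescence in a drug-repurposing library screen. A compound counts as a hit when its signal is more than five robust Z scores above the plate mean.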

Tested on: HEK293A TEAD-LUC reporter
Assay: TEAD-luciferase reporter activity (YAP activation), robust Z score vs plate; higher = stronger YAP/TEAD activation
Settings: 24 h

CC(=O)N[C@H]1CSSC[C@@H](C(=O)O)NC(=O)[C@H](CC(=O)[O-])NC(=O)CNC(=O)[C@H](Cc2ccc(C[NH3+])cc2)NC(=O)[C@H]2N(CSC2(C)C)C(=O)[C@H](CC(N)=O)NC1=O
TEAD-luciferase reporter activity (compound concentration: 200 nM): inactive: -0.117
TEAD-luciferase reporter activity (compound concentration: 2 uM): inactive: -0.965
TEAD-luciferase reporter activity (compound concentration: 10 uM): inactive: 2.44

Cc1cccc(C(=O)NC2N=NN=N2)n1
TEAD-luciferase reporter activity (compound concentration: 200 nM): inactive: -0.64
TEAD-luciferase reporter activity (compound concentration: 2 uM): inactive: -0.461
TEAD-luciferase reporter activity (compound concentration: 10 uM): inactive: -0.475

Nc1nc2c(cnn2CCCc2ccc(O)cc2)c2nc(-c3ccco3)nn12
TEAD-luciferase reporter activity (compound concentration: 200 nM): inactive: -0.85
TEAD-luciferase reporter activity (compound concentration: 2 uM): inactive: 0.348
TEAD-luciferase reporter activity (compound concentration: 10 uM): inactive: 0.188

COc1ccc(/C=C/CCCCOc2ccc(C(=O)c3cccc(C(=O)O)c3)cc2CCC(=O)O)cc1
TEAD-luciferase reporter activity (compound concentration: 200 nM): inactive: -1.78
TEAD-luciferase reporter activity (compound concentration: 2 uM): inactive: -1.15
TEAD-luciferase reporter activity (compound concentration: 10 uM): inactive: -0.444

c1ccc(-c2cc(-n3cc(Cn4ccnc4)c4ccccc43)on2)cc1
TEAD-luciferase reporter activity (compound concentration: 200 nM): inactive: -0.113
TEAD-luciferase reporter activity (compound concentration: 2 uM): inactive: 0.0318
TEAD-luciferase reporter activity (compound concentration: 10 uM): inactive: 4.58

O=C(O)CCC(=O)c1ccc(C2CCCCC2)c(Cl)c1
TEAD-luciferase reporter activity (compound concentration: 200 nM): inactive: -1.53
TEAD-luciferase reporter activity (compound concentration: 2 uM): inactive: -1.81
TEAD-luciferase reporter activity (compound concentration: 10 uM): inactive: 0.505

NS(=O)(=O)NCCNc1nonc1/C(=N/O)Nc1ccc(F)c(Br)c1
TEAD-luciferase reporter activity (compound concentration: 200 nM): inactive: 0.374
TEAD-luciferase reporter activity (compound concentration: 2 uM): inactive: 1.62
TEAD-luciferase reporter activity (compound concentration: 10 uM): inactive: -1.47

CN(C)CCC(=O)N1Cc2ccccc2CC2(CCCN2C)C1 (stereo not given)
TEAD-luciferase reporter activity (compound concentration: 200 nM): inactive: -1.28
TEAD-luciferase reporter activity (compound concentration: 10 uM): inactive: -1.63

CC1(C)Oc2cc(NS(C)(=O)=O)ccc2N(c2ccc(F)cc2)C1=O [Aparare]
TEAD-luciferase reporter activity (compound concentration: 200 nM): inactive: -1.45
TEAD-luciferase reporter activity (compound concentration: 10 uM): inactive: -0.85

COc1cc2c(cc1OC)C1CN(C)CCC1N=C2c1ccc(NS(=O)(=O)c2ccc(C)cc2)cc1 (stereo not given) [Tolafentrine]
TEAD-luciferase reporter activity (compound concentration: 200 nM): inactive: -1.46
TEAD-luciferase reporter activity (compound concentration: 2 uM): inactive: -0.711
TEAD-luciferase reporter activity (compound concentration: 10 uM): inactive: 2.37

OC1CCN(CCCN2c3ccccc3Sc3ccc(C(F)(F)F)cc32)C1 (stereo not given)
TEAD-luciferase reporter activity (compound concentration: 200 nM): inactive: 1.3
TEAD-luciferase reporter activity (compound concentration: 2 uM): inactive: -0.736
TEAD-luciferase reporter activity (compound concentration: 10 uM): inactive: 0.638

CCC(=O)c1c(O)cc(O)cc1O
TEAD-luciferase reporter activity (compound concentration: 200 nM): inactive: -1.1
TEAD-luciferase reporter activity (compound concentration: 2 uM): inactive: 0.484
TEAD-luciferase reporter activity (compound concentration: 10 uM): inactive: 0.497

O=C(O)CCNC(=O)c1ccccc1 [Betamipron]
TEAD-luciferase reporter activity (compound concentration: 200 nM): inactive: -0.667
TEAD-luciferase reporter activity (compound concentration: 2 uM): inactive: -1.28
TEAD-luciferase reporter activity (compound concentration: 10 uM): inactive: -0.763

COc1c(N2C[C@@H](C)C[C@H](N)C2)ccc2c(=O)c(C(=O)O)cn(C3CC3)c12 [Nemonoxacin]
TEAD-luciferase reporter activity (compound concentration: 200 nM): inactive: -1.15
TEAD-luciferase reporter activity (compound concentration: 2 uM): inactive: 0.177
TEAD-luciferase reporter activity (compound concentration: 10 uM): inactive: -1.93

O=C1Nc2ccc(Cl)cc2[C@](C#CC2CC2)(C(F)(F)F)N1
TEAD-luciferase reporter activity (compound concentration: 200 nM): inactive: 0.924
TEAD-luciferase reporter activity (compound concentration: 2 uM): inactive: 0.0316
TEAD-luciferase reporter activity (compound concentration: 10 uM): inactive: 3.82

COCCCOc1ccnc(CS(=O)c2nc3ccccc3[nH]2)c1C (stereo not given)
TEAD-luciferase reporter activity (compound concentration: 200 nM): active: 5.62
TEAD-luciferase reporter activity (compound concentration: 10 uM): inactive: 1.05

COCCCOc1ccnc(CS(=O)c2nc3ccccc3[nH]2)c1C (stereo not given) [Rabeprazole sodium]
TEAD-luciferase reporter activity (compound concentration: 2 uM): inactive: -1.04

COc1ccc([C@@H]2COc3cc(OC)ccc3C2=O)cc1
TEAD-luciferase reporter activity (compound concentration: 200 nM): inactive: -0.93
TEAD-luciferase reporter activity (compound concentration: 2 uM): inactive: -0.434
TEAD-luciferase reporter activity (compound concentration: 10 uM): inactive: 0.687

CC(=O)OCC1=C(C(=O)O)N2C(=O)[C@@H](NC(=O)Cc3cccs3)[C@H]2SC1 [Cefalotin sodium]
TEAD-luciferase reporter activity (compound concentration: 200 nM): inactive: -1.08
TEAD-luciferase reporter activity (compound concentration: 2 uM): inactive: 1.64
TEAD-luciferase reporter activity (compound concentration: 10 uM): inactive: -1.84

C=C1[C@H](CO)[C@@H](O)C[C@@H]1n1cnc2c(O)nc(N)nc21 [Entecavir hydrate]
TEAD-luciferase reporter activity (compound concentration: 200 nM): inactive: -1.2
TEAD-luciferase reporter activity (compound concentration: 10 uM): inactive: -1.8

C=C1[C@H](CO)[C@@H](O)C[C@@H]1n1cnc2c(O)nc(N)nc21 [entecavir]
TEAD-luciferase reporter activity (compound concentration: 2 uM): inactive: -0.511

N=C(N)NCC1CCC(C(=O)Oc2ccccc2C(=O)OCc2ccccc2)CC1 (stereo not given)
TEAD-luciferase reporter activity (compound concentration: 200 nM): inactive: -0.373
TEAD-luciferase reporter activity (compound concentration: 2 uM): inactive: 0.279
TEAD-luciferase reporter activity (compound concentration: 10 uM): inactive: 0.669

O=C(O)c1cc(O)ccc1O
TEAD-luciferase reporter activity (compound concentration: 200 nM): inactive: 0.0219
TEAD-luciferase reporter activity (compound concentration: 2 uM): inactive: -0.0902
TEAD-luciferase reporter activity (compound concentration: 10 uM): inactive: 0.0409

O=C(c1cc(Br)cn2ccnc12)N1CCC(N2CCCCCC2=O)CC1
TEAD-luciferase reporter activity (compound concentration: 200 nM): inactive: -0.555
TEAD-luciferase reporter activity (compound concentration: 10 uM): inactive: 1.33

NC(=O)c1cnc(N[C@@H]2CCCC[C@@H]2N)nc1Nc1cccc(-n2nccn2)c1
TEAD-luciferase reporter activity (compound concentration: 200 nM): inactive: 2.9
TEAD-luciferase reporter activity (compound concentration: 2 uM): active: 7.99
TEAD-luciferase reporter activity (compound concentration: 10 uM): inactive: 1.11

COCCCN1CC[C@@H](CNC(=O)c2cc(Cl)c(N)c3c2OCC3)[C@@H](O)C1
TEAD-luciferase reporter activity (compound concentration: 200 nM): inactive: -0.727
TEAD-luciferase reporter activity (compound concentration: 2 uM): inactive: 0.314
TEAD-luciferase reporter activity (compound concentration: 10 uM): inactive: -1

Cc1c(CC(=O)O)c2ccccc2n1C(=O)c1ccccc1 [Delmetacin]
TEAD-luciferase reporter activity (compound concentration: 200 nM): inactive: -0.705
TEAD-luciferase reporter activity (compound concentration: 2 uM): inactive: 0.419
TEAD-luciferase reporter activity (compound concentration: 10 uM): inactive: -1.09

Fc1cc(F)cc(Cn2ccnc2S)c1
TEAD-luciferase reporter activity (compound concentration: 200 nM): inactive: -0.544
TEAD-luciferase reporter activity (compound concentration: 2 uM): inactive: -1.24
TEAD-luciferase reporter activity (compound concentration: 10 uM): inactive: -0.539

Cc1onc(-c2c(F)cccc2Cl)c1C(=O)N[C@@H]1C(=O)N2[C@@H]1SC(C)(C)[C@@H]2C(=O)[O-]
TEAD-luciferase reporter activity (compound concentration: 200 nM): inactive: -0.887
TEAD-luciferase reporter activity (compound concentration: 2 uM): inactive: -0.663
TEAD-luciferase reporter activity (compound concentration: 10 uM): inactive: -1.19

Cn1c(=O)c2ncn(CC(=O)Nc3nc(-c4ccc(Cl)cc4)cs3)c2n(C)c1=O
TEAD-luciferase reporter activity (compound concentration: 200 nM): inactive: 0.244
TEAD-luciferase reporter activity (compound concentration: 2 uM): inactive: -1.26
TEAD-luciferase reporter activity (compound concentration: 10 uM): inactive: 3.55

Cc1cn(CC#CCN2CCCC2=O)cn1
TEAD-luciferase reporter activity (compound concentration: 200 nM): inactive: -0.788
TEAD-luciferase reporter activity (compound concentration: 2 uM): inactive: -0.043
TEAD-luciferase reporter activity (compound concentration: 10 uM): inactive: 3.75

O=C(O)[C@H](Cc1ccc(Nc2nccc3ccncc23)cc1)NC1=C(Br)C(=O)C12CCCCC2
TEAD-luciferase reporter activity (compound concentration: 200 nM): inactive: 0.777
TEAD-luciferase reporter activity (compound concentration: 2 uM): inactive: -0.194
TEAD-luciferase reporter activity (compound concentration: 10 uM): inactive: -0.055

COCCCNC(=O)c1ccnc(C(=O)NCCCOC)c1 [Safironil]
TEAD-luciferase reporter activity (compound concentration: 200 nM): inactive: -1.94
TEAD-luciferase reporter activity (compound concentration: 2 uM): inactive: -1.05
TEAD-luciferase reporter activity (compound concentration: 10 uM): active: 5.29

CCN(CC)CCOc1ccc(N(C)C(=O)c2ccc(-c3ccc(C(F)(F)F)cc3)cc2)cc1OC
TEAD-luciferase reporter activity (compound concentration: 200 nM): inactive: -1.62
TEAD-luciferase reporter activity (compound concentration: 2 uM): inactive: -1.48
TEAD-luciferase reporter activity (compound concentration: 10 uM): inactive: 0.0269

Nc1nc(N)c(-c2ccccc2)s1
TEAD-luciferase reporter activity (compound concentration: 200 nM): inactive: -0.895
TEAD-luciferase reporter activity (compound concentration: 2 uM): inactive: -1.78
TEAD-luciferase reporter activity (compound concentration: 10 uM): inactive: 3.37

O=C(CC1(c2ccccc2)C2CC3CC(C2)CC1C3)NCC(O)CO (stereo not given)
TEAD-luciferase reporter activity (compound concentration: 200 nM): inactive: -0.253
TEAD-luciferase reporter activity (compound concentration: 2 uM): inactive: -1.57
TEAD-luciferase reporter activity (compound concentration: 10 uM): inactive: 1.67

O=C(O)CCCCCCCOc1nc(-c2ccccc2)c(-c2ccccc2)n1-c1ccccc1
TEAD-luciferase reporter activity (compound concentration: 200 nM): inactive: 1.05
TEAD-luciferase reporter activity (compound concentration: 2 uM): inactive: 0.437
TEAD-luciferase reporter activity (compound concentration: 10 uM): inactive: -1.17

COC(=O)c1ccc(NC(=O)CSc2nnc(Br)n2-c2ccc(C3CC3)c3ccccc23)c(Cl)c1
TEAD-luciferase reporter activity (compound concentration: 200 nM): inactive: 0.848
TEAD-luciferase reporter activity (compound concentration: 2 uM): inactive: -0.991
TEAD-luciferase reporter activity (compound concentration: 10 uM): inactive: -1.26
